In all, about 1,200 compounds went through this assay and about 60 (5%) were called active. Not shown: some 1% with an inconclusive outcome.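 How the source made its calls: active means Decreasing signal and fitted IC50 at most twice the top valid tested dose; inconclusive means Bad fit or a level curve showing 30 to 70% inhibition; inactive means the rest.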 The list shows a part of the results. Entries with a potency or affinity are not part of this list.
The compounds below were run against NAD-dependent protein deacylase sirtuin-5, mitochondrial (Homo sapiens) (UniProt Q9NXA8) (assay: SIRT5 desuccinylase inhibitors, dose response, biochemical, fluorescence imaging, cherry-pick, set 5 (AID 720591;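 further: 0% = median of neutral control wells and -100% = median of positive control wells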)). Conditions: Purified SirT5, succinyl-peptide AMC, trypsin-coupled fluorescence; at 15 µM (top of the series) unless noted.

By UniProt entry, the sequences of proteins in these tests, tags left out. Where a name states a change or a piece, a line headed by the entry shows the natural chain unless it says otherwise.
UniProt Q9NXA8: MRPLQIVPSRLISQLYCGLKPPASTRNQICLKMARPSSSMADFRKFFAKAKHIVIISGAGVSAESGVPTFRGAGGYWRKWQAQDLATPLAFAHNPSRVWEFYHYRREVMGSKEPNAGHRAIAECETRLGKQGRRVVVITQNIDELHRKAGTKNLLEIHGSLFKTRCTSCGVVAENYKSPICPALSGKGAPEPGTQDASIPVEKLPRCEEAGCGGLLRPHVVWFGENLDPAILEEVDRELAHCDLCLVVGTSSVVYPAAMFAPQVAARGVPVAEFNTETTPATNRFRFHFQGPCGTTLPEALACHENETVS

Activity change, negative = inhibition, inactive:
COc1ccccc1C1CC(=O)Oc2cc(C)c(Br)c(C)c21 (centres undefined) -16.1%, CC1CN(S(=O)(=O)c2ccc(CN3C(=O)c4cccnc4C3=O)s2)c2ccccc2O1 (centres undefined) 16.4%, O=C(c1cc2nc(-c3ccccc3)cc(C(F)(F)F)n2n1)N1CCCC1 -23.5%, Cc1noc(C)c1NC(=O)N(C)C[C@@H]1Oc2ncc(Br)cc2C(=O)N([C@@H](C)CO)C[C@H]1C 34.1%, Cc1ccc(-c2nc3c(Cl)cc(C(F)(F)F)cn3c2Cc2cccc(F)c2)cc1 6.86%, O=C(NCc1csc(-c2cccs2)n1)Nc1ccc(C(F)(F)F)cc1 -5.41%, COc1ccccc1NC(=O)CNc1ccc(F)c(Cl)c1 0.52%, O=S1c2ccccc2Nc2ccccc21 8.8%, Cc1ccc(C(C(=O)NC(C)(C)C)N(C(=O)CCC(=O)Nc2ccccn2)c2ccccc2F)cc1 (centres undefined) -3.12%, CSc1ccccc1OCc1cc(C(=O)N(C)C2CCCc3ccccc32)no1 (centres undefined) -23.7%, Cc1cccc(Nc2ccncc2S(N)(=O)=O)c1 15.9%, COC(=O)[C@@]1(Cc2ccc(F)cc2)[C@H]2c3cc(C(=O)N4CCCC4)n(Cc4cc(F)cc5c4OCOC5)c3C[C@H]2CN1C(=O)c1ccccc1 5.04%, CCc1cc(CNC(=O)CCc2nnc(CCCc3ccccc3)o2)on1 15.5%, Cc1cc(C(=O)OCC(=O)N(C)c2ccccc2)c2ccccc2n1 8.2%, NNC(=O)Nc1cccc(C(F)(F)F)c1 -19.8%, Cc1ccc(Cn2c(N3CCN(C)CC3)nc3c2c(=O)[nH]c(=O)n3C)cc1 -22.3%, CC(C)CCNC(=O)CC1C(=O)N(Cc2ccccc2)C(C)c2nc3ccccc3n21 (centres undefined) -12.5%, CCOC(=O)c1c(-c2ccccc2)oc2ccc(OCC(N)=O)cc12 -16.4%, Cn1c(SCC(=O)NCC2CCCO2)nnc1-c1ccc(Cl)cc1 (centres undefined) -5.46%, Cc1ccc(N(C(=O)c2csnn2)C(C(=O)NC2CCCCC2)c2ccco2)cc1 (centres undefined) 30.9%, Cc1cccc(NC(=O)C2CC(=O)n3ncnc3N2)c1 (centres undefined) -12.1%, COc1cccc(CC(=O)Nc2nc(-c3ccc(F)c(F)c3)cs2)c1 -16.6%, COc1ccc(Cl)cc1NC(=O)COC(=O)c1ccc(Br)o1 -27.1%, COc1ccc(-c2[nH]ncc2CN2CCCC(C(=O)c3cccc(OC)c3)C2)cc1 (centres undefined) 6.7%, Cc1c(C)c2c(C)nn(-c3ccccc3)c2[nH]c1=O -25.9%, CC(C)(C)C(=O)c1c(N)[nH]c(C(=O)c2ccccc2)c1-c1ccc(Br)cc1 15.2%, CCN(CC(=O)NC1CCS(=O)(=O)C1)S(=O)(=O)c1ccccc1 (centres undefined) 19.5%, CSc1ccccc1C(=O)Nc1ccc2c(c1)CCC2 8.23%, CCOC(=O)c1cnc2ncnn2c1N -12.4%, Cc1cc(C(=O)COc2ccc(C#N)cc2)c(C)n1-c1ccc2c(c1)OCO2 9.98% [at 7.5 µM], COc1ccc2c(c1)C(=O)O[C@@H](c1ccccc1)C[C@@H](O)C(=O)CC2 5.6%, O=C(Nc1ccc(S(=O)(=O)Nc2nccs2)cc1)c1cccc(F)c1 11.9%, C=CCNC(=O)CC1C(=O)NCCN1Cc1c(F)cccc1Cl (centres undefined) 14.4%, Cc1nc(CN(C)Cc2nc(Cc3cccc(F)c3)no2)cs1 -20.2%, c1ccc(CCn2nnc3ccccc32)cc1 16.6%, O=C(Nc1ccc(Br)cc1Cl)N1CCOCC1 9.12%, c1ccc(CN2CCC(N3CCC(N4CCCCCC4)CC3)CC2)cc1 -6.12%, CCOc1ccc(CCNC(=O)Cn2nc(C)c3c(C)n(-c4ccccc4)nc3c2=O)cc1 -21.5%, O=c1nc(-c2ccccc2)c2cc(Br)ccc2[nH]1 10.4%, CCOC(=O)CSC1=C(C#N)C(c2sccc2C)C(C(C)=O)=C(C)N1 (centres undefined) -2.3%, COc1ccc(C2CC(c3cccs3)=NN2C(=O)CN2CCCCC2)cc1 (centres undefined) -3.22%, CCOC(=O)c1c(C)[nH]c(C)c1C(=O)COC(=O)c1cc(OC)c(OC)cc1OC -19%, COc1ccc(Nc2oc(-c3ccco3)nc2S(=O)(=O)c2ccc(F)cc2)cc1 -8.04%, CCOC(=O)c1c(C)[nH]c(C)c1C(=O)COC(=O)c1cc2ccccc2cc1OC 8.57%, CCOc1ccc(CCNS(=O)(=O)c2cn(C)cn2)cc1OCC 25.9%, CCCCc1cc(=O)oc2cc(OCC(=O)NC3CCN(Cc4ccccc4)CC3)ccc12 1.28%, CCc1ccc(CN(C)C(=O)C2CCC(=O)N(Cc3ccccn3)C2)cc1 (centres undefined) 39.2% [at 7.5 µM], NS(=O)(=O)c1ccc(F)c(C(=O)O)c1 -21.7%, COc1ccc(OC)c(NC(=O)CSc2nnc(CNC(=O)c3cccs3)o2)c1 13%, CCOc1ccccc1N(C)C(=O)c1cn(CC)c(=O)c2cc(OC)c(OC)cc12 -3.6%, O=S1(=O)CC(N2CCN(CCO)CC2)CN1Cc1cn(Cc2ccc(Cl)cc2)nn1 (centres undefined) -5.06%, CC(C)(C)NC(=O)C(c1ccco1)N(C(=O)c1csnn1)c1ccccc1 (centres undefined) -6.46%, CC(C)NC(=O)CSCc1cccc(Br)c1 -8.41%, COc1ccc(O)c(C(=O)c2cnc3c(c2)c(C)nn3CCO)c1 2.08%, N[C@@H](CO)c1nnc([C@H](Cc2ccc(O)cc2)NC(=O)C2CCNCC2)o1 -9.88%, COc1ccc(OCC(=O)Nc2ccc(NC(=O)c3cccs3)cc2)cc1 -14.9%, Cn1cnc2c(NCc3ccco3)ncnc21 -20.1%, Cc1c(C(N)=O)sc2ncn(CCOc3ccccc3)c(=O)c12 19.4%, CC(=O)NC(CC(=O)N1CCN(C(C)=O)CC1)c1ccccc1 (centres undefined) 2.36%, C=CCn1c(SCC(=O)c2ccc(O)c(O)c2)nnc1-c1ccc(C)cc1 -23.6%, CCOC(=O)c1cc(C(C)C)sc1NC(=O)COC(=O)CCS(=O)(=O)c1ccccc1 -24.3%, CCCC(=O)N1CCN(c2ccc(NC(=O)c3cccs3)cc2Cl)CC1 -12%, CCOCCCNCc1ccc(OCc2ccccc2C)c(OC)c1 7.01%, Cc1cccc(-c2noc(C(C)NC(=O)c3ccco3)n2)c1 (centres undefined) 3%, COc1cccc(OCc2ccc(Cn3nc(NC(=O)NCCc4ccc(OC)c(OC)c4)c4ccccc43)cc2)c1 -10.4%, CCCCN(CCCC)S(=O)(=O)c1c(C)[nH]c(=O)[nH]c1=O 3.94%, COc1ccccc1NC(=O)C1CCN(S(=O)(=O)c2ccc3c(c2)CC(C)N3C(C)=O)CC1 (centres undefined) -5.26%, CCOc1ccc2nc(SCC(=O)Nc3cc(C)on3)c(C)cc2c1 6.79%, COc1ccc(CCNC(=O)[C@H](C)NC(=O)N2CCn3c2nc2ccccc23)cc1OC 8.92%, N#Cc1cccc(NC(=O)Cn2cnc(S(=O)(=O)N3CCCCC3)c2)c1 0.087%, Cc1cccc(NC(=O)c2cccc(S(=O)(=O)Nc3c(C)n(C)n(-c4ccccc4)c3=O)c2)c1 -18.5%, CCCNC(=O)CCc1c(C)nc2c(c(C)nn2-c2ccccc2)c1C 22.2%, COC(=O)C1(Cc2cc(-c3ccc(OC)cc3OC)no2)CCN(C(=O)OC(C)(C)C)CC1 -19%, CCCc1c(C(=O)OCC)[nH]c2c1C(=O)CCC2 -33%

Source: PubChem BioAssay AID720591 (Broad Institute, 2013)
